Results from the supplement of paper PMC10849652.
This is one part of the list.

Sequences of proteins named here, by UniProt entry; tags and fusion partners are left off. A change or cut given only in a name is not applied to a line headed by its entry.
UniProt Q9BZ29: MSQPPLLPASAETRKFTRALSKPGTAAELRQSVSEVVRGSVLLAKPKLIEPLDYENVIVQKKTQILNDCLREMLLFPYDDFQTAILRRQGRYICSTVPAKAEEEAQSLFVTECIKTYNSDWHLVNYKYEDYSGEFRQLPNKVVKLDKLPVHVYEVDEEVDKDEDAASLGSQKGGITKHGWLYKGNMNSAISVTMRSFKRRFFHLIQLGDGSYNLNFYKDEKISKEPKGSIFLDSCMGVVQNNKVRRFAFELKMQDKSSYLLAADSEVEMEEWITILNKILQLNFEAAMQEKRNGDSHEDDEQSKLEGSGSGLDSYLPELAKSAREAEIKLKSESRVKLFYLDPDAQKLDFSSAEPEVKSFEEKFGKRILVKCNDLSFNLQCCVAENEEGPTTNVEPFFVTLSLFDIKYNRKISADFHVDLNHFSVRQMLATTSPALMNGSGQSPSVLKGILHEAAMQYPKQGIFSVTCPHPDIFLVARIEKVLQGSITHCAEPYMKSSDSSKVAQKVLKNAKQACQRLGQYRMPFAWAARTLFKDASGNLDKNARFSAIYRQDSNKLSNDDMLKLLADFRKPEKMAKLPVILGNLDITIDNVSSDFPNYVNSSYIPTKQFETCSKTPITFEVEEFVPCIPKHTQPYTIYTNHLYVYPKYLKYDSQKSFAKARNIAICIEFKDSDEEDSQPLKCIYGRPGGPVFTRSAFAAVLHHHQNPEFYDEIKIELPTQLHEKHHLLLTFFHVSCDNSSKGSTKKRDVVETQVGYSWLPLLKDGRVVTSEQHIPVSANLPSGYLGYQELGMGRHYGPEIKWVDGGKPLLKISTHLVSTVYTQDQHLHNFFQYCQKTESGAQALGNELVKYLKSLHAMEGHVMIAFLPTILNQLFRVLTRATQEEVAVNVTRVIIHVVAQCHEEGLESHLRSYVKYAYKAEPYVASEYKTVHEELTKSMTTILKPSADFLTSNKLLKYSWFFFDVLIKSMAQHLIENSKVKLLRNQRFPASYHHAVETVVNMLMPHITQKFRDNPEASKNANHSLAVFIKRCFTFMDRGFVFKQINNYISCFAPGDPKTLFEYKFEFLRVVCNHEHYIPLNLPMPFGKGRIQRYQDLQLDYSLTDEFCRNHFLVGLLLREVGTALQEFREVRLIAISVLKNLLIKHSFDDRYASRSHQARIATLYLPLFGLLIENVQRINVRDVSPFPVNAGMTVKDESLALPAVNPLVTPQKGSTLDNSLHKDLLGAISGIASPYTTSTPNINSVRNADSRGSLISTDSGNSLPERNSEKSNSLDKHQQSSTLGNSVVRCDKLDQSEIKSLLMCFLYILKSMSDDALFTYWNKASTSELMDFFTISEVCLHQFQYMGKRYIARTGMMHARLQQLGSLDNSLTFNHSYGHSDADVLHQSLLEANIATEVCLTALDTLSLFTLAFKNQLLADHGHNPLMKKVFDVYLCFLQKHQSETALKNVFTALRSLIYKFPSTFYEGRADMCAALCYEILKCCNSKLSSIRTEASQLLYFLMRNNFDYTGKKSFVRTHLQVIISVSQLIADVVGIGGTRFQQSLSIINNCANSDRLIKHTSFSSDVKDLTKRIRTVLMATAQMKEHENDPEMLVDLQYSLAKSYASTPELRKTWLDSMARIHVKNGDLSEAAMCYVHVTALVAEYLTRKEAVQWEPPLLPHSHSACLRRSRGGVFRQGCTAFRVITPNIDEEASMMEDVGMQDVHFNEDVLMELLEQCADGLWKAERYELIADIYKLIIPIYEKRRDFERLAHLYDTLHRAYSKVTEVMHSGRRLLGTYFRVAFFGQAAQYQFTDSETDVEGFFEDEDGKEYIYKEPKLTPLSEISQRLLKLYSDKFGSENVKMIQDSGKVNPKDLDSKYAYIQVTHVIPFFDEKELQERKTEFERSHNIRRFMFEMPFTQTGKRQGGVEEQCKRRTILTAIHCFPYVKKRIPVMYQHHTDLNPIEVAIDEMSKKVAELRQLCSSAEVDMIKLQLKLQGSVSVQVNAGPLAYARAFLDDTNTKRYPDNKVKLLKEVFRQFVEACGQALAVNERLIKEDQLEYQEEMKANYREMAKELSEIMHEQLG
UniProt Q9BTZ2: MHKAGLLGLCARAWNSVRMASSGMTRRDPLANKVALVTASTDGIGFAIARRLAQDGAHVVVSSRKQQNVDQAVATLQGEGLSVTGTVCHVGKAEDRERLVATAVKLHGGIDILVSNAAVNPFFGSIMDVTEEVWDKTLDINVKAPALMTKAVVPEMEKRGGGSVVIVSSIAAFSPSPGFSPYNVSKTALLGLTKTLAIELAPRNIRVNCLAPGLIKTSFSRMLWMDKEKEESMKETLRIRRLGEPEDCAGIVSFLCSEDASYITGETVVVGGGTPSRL
UniProt Q08495: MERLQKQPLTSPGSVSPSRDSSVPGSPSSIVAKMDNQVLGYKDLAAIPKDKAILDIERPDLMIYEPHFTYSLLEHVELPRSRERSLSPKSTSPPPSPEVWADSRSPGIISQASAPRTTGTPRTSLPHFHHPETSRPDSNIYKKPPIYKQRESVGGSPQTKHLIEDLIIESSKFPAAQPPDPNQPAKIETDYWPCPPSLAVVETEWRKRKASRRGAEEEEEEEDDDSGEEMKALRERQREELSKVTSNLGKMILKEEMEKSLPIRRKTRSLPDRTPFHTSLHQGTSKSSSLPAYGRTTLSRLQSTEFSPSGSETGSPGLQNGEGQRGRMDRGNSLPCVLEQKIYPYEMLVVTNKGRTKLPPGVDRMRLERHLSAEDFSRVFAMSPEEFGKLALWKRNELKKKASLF
UniProt Q9NVM6: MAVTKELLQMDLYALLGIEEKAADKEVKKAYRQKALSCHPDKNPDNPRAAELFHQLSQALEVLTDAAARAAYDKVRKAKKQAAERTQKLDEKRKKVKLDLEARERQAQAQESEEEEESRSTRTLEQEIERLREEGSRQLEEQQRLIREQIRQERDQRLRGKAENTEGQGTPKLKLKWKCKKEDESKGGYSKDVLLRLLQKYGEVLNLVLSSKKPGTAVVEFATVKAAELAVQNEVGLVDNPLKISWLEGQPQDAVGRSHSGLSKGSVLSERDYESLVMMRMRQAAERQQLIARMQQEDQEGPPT
UniProt Q86SQ9: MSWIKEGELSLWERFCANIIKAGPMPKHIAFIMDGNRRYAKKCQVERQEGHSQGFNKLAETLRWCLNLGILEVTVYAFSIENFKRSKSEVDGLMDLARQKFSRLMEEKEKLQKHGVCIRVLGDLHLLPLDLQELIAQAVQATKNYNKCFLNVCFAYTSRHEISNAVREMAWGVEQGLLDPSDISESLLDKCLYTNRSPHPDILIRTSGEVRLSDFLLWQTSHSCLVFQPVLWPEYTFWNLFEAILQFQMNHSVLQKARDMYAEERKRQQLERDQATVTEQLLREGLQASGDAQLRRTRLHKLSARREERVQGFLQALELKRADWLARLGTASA
UniProt Q9Y2H0: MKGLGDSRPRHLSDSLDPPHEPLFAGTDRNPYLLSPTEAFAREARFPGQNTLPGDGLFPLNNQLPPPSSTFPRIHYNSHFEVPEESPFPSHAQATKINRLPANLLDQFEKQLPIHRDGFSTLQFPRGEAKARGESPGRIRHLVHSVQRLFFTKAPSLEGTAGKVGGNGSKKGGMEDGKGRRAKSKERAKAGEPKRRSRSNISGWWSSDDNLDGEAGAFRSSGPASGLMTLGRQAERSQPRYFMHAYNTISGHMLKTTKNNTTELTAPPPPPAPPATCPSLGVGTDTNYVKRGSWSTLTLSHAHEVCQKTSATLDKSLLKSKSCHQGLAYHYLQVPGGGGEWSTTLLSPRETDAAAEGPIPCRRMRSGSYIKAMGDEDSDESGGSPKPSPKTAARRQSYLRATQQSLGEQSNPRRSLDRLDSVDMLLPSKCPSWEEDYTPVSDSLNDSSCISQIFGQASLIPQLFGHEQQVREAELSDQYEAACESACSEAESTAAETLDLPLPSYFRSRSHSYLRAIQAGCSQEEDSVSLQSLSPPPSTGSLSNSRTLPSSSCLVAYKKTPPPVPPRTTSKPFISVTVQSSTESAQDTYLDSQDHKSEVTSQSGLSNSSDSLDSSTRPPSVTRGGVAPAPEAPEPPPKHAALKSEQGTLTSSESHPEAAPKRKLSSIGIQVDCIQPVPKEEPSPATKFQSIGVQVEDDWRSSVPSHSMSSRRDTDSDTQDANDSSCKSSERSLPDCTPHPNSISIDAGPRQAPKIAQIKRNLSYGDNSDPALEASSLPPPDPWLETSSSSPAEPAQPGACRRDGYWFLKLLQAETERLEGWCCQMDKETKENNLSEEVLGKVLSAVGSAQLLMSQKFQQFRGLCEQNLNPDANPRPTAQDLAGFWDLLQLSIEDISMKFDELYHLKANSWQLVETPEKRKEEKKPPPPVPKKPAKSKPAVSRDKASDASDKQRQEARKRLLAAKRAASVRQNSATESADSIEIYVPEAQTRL
UniProt Q5F1R6: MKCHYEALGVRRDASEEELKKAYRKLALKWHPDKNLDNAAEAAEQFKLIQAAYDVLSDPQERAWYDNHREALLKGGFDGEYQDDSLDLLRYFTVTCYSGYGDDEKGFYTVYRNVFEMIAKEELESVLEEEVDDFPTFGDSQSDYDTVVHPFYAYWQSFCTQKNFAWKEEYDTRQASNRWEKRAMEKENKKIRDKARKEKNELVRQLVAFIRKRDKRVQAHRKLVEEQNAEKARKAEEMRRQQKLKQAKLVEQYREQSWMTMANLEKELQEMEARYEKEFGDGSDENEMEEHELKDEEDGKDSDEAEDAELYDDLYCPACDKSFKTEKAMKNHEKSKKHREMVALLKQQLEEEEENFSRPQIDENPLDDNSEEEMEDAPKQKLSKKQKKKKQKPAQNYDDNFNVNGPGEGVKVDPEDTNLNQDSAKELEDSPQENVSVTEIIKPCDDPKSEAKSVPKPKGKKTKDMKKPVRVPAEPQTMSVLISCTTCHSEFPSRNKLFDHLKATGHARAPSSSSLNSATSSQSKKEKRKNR
UniProt Q9NVR5: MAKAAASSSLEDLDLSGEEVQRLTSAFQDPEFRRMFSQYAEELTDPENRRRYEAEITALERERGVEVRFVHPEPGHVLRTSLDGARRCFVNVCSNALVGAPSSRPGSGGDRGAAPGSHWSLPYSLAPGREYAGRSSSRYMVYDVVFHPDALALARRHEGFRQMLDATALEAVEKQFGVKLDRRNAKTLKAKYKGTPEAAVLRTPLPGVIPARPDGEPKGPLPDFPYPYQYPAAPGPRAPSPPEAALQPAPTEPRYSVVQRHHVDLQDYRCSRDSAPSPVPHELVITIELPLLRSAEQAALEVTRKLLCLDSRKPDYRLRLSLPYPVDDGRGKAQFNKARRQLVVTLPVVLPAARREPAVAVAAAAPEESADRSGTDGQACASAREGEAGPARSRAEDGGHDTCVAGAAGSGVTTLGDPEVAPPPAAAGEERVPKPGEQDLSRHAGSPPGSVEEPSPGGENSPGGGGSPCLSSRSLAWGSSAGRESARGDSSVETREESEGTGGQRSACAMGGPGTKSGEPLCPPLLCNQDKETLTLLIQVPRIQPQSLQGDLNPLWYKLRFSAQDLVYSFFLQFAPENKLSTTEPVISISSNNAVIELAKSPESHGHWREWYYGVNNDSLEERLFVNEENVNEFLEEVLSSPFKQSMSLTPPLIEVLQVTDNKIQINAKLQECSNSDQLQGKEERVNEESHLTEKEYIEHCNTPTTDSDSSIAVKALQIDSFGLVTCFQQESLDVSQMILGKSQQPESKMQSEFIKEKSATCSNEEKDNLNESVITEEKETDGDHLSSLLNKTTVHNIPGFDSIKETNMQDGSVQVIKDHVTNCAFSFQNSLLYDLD

Columns and labels:
Test in all cases: log2 fold change, soluble protein after heating vs DMSO (PISA); higher = thermal stabilisation; K562 lysate, 10 uM; active = over 0.2 and 3.5 SD of the protein, either way, in both replicates (recomputed)
lapatinib = compound: CS(=O)(=O)CCNCc1ccc(-c2ccc3ncnc(Nc4ccc(OCc5cccc(F)c5)c(Cl)c4)c3c2)o1 [lapatinib]
In short: (§1)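 Dounce homogenisation of K562 pellets in PBS pH 7.4 with 1 mM MgCl2 produced a crude extract, used at 1 mg/mL protein. Exposure to 10 μM compound lasted 30 min, and aliquots were then heated for 3 min across 48°C-58°C, pooled and brought to 0.5% NP-40 at 4°C. The supernatant after 21,000xg for 90 min was quantified by TMTpro 16plex LC-MS/MS with channel sums equalised. Duplicate values are given as log-two fold change in thermal stability relative to solvent controls.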

pictilisib = compound: CS(=O)(=O)N1CCN(Cc2cc3nc(-c4cccc5[nH]ncc45)nc(N4CCOCC4)c3s2)CC1 [pictilisib]
In short: as §1

crizotinib = compound: C[C@@H](Oc1cc(-c2cnn(C3CCNCC3)c2)cnc1N)c1c(Cl)ccc(F)c1Cl [crizotinib]
In short: as §1

[1] = compound: C[C@H](C1=CC=C(C=C1)C(=O)NC2=C3C=CNC3=NC=C2)N
In short: as §1

duvelisib = compound: C[C@H](Nc1ncnc2nc[nH]c12)c1cc2cccc(Cl)c2c(=O)n1-c1ccccc1 [duvelisib]
In short: as §1

gandotinib = compound: Cc1cc(Nc2cc(CN3CCOCC3)c3nc(C)c(Cc4ccc(Cl)cc4F)n3n2)n[nH]1 [gandotinib]
In short: as §1

tozasertib = compound: Cc1cc(Nc2cc(N3CCN(C)CC3)nc(Sc3ccc(NC(=O)C4CC4)cc3)n2)n[nH]1 [tozasertib]
In short: as §1

doramapimod = compound: Cc1ccc(-n2nc(C(C)(C)C)cc2NC(=O)Nc2ccc(OCCN3CCOCC3)c3ccccc23)cc1 [doramapimod]
In short: as §1

bafetinib = compound: Cc1ccc(NC(=O)c2ccc(CN3CC[C@H](N(C)C)C3)c(C(F)(F)F)c2)cc1Nc1nccc(-c2cncnc2)n1 [bafetinib]
In short: as §1

[2] = compound: Cc1cccc(CC(=O)N2CCc3c2ccc(-c2cn(C)c4ncnc(N)c24)c3F)n1
In short: as §1

nilotinib = compound: Cc1cn(-c2cc(NC(=O)c3ccc(C)c(Nc4nccc(-c5cccnc5)n4)c3)cc(C(F)(F)F)c2)cn1 [nilotinib]
In short: as §1

[3] = compound: Cc1nc(Nc2n[nH]c3c2CN(C(=O)N[C@H](CN(C)C)c2ccccc2)C3(C)C)c2sccc2n1
In short: as §1

dasatinib = compound: Cc1nc(Nc2ncc(C(=O)Nc3c(C)cccc3Cl)s2)cc(N2CCN(CCO)CC2)n1 [dasatinib]
In short: as §1

[4] = compound: Cc1ncc(-c2ccnc(Nc3ccc(S(C)(=O)=O)cc3)n2)n1C(C)C
In short: as §1

[5] = compound: Cn1cc(-c2ccc3c(c2)CCN3C(=O)Cc2cccc(C(F)(F)F)c2)c2c(N)ncnc21
In short: as §1

quisinostat = compound: Cn1cc(CNCC2CCN(c3ncc(C(=O)NO)cn3)CC2)c2ccccc21 [quisinostat]
In short: as §1

tipifarnib = compound: Cn1cncc1[C@@](N)(c1ccc(Cl)cc1)c1ccc2c(c1)c(-c1cccc(Cl)c1)cc(=O)n2C [tipifarnib]
In short: as §1

[6] = compound: NC(=O)Nc1cc(-c2cccc(F)c2)sc1C(=O)N[C@H]1CCCNC1
In short: as §1

[7] = compound: NC(=O)c1cnc(N[C@@H]2CCCC[C@@H]2N)nc1Nc1cccc(-n2nccn2)c1
In short: as §1

[8] = compound: NC1(c2ccc(-c3nc4ccn5c(=O)[nH]nc5c4cc3-c3ccccc3)cc2)CCC1
In short: as §1

Measured: log2 fold change

DOCK9 isoform 4 (UniProt Q9BZ29)
inactive: lapatinib 0.007 | pictilisib 0.02 | crizotinib -0.006 | [1] -0.066 | duvelisib -0.039 | gandotinib -0.042 | tozasertib 0.048 | doramapimod 0.01 | bafetinib -0.033 | [2] 0.013 | nilotinib 0.011 | [3] -0.036 | dasatinib 0.029 | [4] 0.015 | [5] 0.023 | quisinostat -0.039 | tipifarnib 0.035 | [6] 0.028 | [7] 0.007 | [8] -0.004

DHRS4 (UniProt Q9BTZ2)
inactive: lapatinib -0.014 | pictilisib 0.013 | crizotinib 0.073 | [1] -0.031 | duvelisib 0.007 | gandotinib 0.017 | tozasertib 0 | doramapimod 0.01 | bafetinib 0.01 | [2] 0.023 | nilotinib -0.022 | [3] -0.006 | dasatinib -0.003 | [4] -0.002 | [5] -0.024 | quisinostat 0.054 | tipifarnib -0.003 | [6] -0.025 | [7] -0.008 | [8] 0.006

DMTN (UniProt Q08495)
inactive: lapatinib -0.017 | pictilisib -0.012 | crizotinib 0.048 | [1] 0.02 | duvelisib 0.002 | gandotinib 0.028 | tozasertib 0.032 | doramapimod 0.001 | bafetinib -0.009 | [2] -0.02 | nilotinib 0.003 | [3] 0.014 | dasatinib 0.031 | [4] 0.001 | [5] 0.017 | quisinostat 0.029 | tipifarnib 0.004 | [6] -0.015 | [7] -0.002 | [8] -0.01

DNAJC17 (UniProt Q9NVM6)
inactive: lapatinib -0.005 | pictilisib 0.002 | crizotinib 0.022 | [1] 0.02 | duvelisib 0.016 | gandotinib 0.011 | tozasertib -0.032 | doramapimod 0.012 | bafetinib -0.05 | [2] 0.052 | nilotinib 0.023 | [3] -0.042 | dasatinib -0.055 | [4] -0.009 | [5] 0.042 | quisinostat -0.005 | tipifarnib 0.08 | [6] -0.042 | [7] 0.037 | [8] 0.024

2 neighbouring records from above:
DHRS4 (UniProt Q9BTZ2)
inactive: lapatinib -0.014 | pictilisib 0.013 | crizotinib 0.073 | [1] -0.031 | duvelisib 0.007 | gandotinib 0.017 | tozasertib 0 | doramapimod 0.01 | bafetinib 0.01 | [2] 0.023 | nilotinib -0.022 | [3] -0.006 | dasatinib -0.003 | [4] -0.002 | [5] -0.024 | quisinostat 0.054 | tipifarnib -0.003 | [6] -0.025 | [7] -0.008 | [8] 0.006

DMTN (UniProt Q08495)
inactive: lapatinib -0.017 | pictilisib -0.012 | crizotinib 0.048 | [1] 0.02 | duvelisib 0.002 | gandotinib 0.028 | tozasertib 0.032 | doramapimod 0.001 | bafetinib -0.009 | [2] -0.02 | nilotinib 0.003 | [3] 0.014 | dasatinib 0.031 | [4] 0.001 | [5] 0.017 | quisinostat 0.029 | tipifarnib 0.004 | [6] -0.015 | [7] -0.002 | [8] -0.01

The list goes on:

DHDDS isoform 2 (UniProt Q86SQ9)
inactive: lapatinib -0.008 | pictilisib -0.076 | crizotinib 0.03 | [1] 0.007 | duvelisib -0.01 | gandotinib -0.091 | tozasertib 0.044 | doramapimod -0.023 | bafetinib -0.062 | [2] 0.016 | nilotinib -0.017 | [3] 0.033 | dasatinib 0.034 | [4] -0.017 | [5] -0.018 | quisinostat 0.027 | tipifarnib -0.029 | [6] 0.027 | [7] 0.008 | [8] 0.004

DLGAP4 (UniProt Q9Y2H0)
inactive: lapatinib -0.002 | pictilisib -0.012 | crizotinib -0.022 | [1] -0.051 | duvelisib 0.015 | gandotinib 0.018 | tozasertib 0.034 | doramapimod -0.009 | bafetinib 0.029 | [2] -0.041 | nilotinib -0.014 | [3] 0.01 | dasatinib -0.009 | [4] 0.02 | [5] 0.048 | quisinostat -0.037 | tipifarnib 0.05 | [6] 0.01 | [7] 0.002 | [8] -0.059

DNAJC21 isoform 3 (UniProt Q5F1R6)
inactive: lapatinib -0.022 | pictilisib -0.003 | crizotinib 0.014 | [1] 0.095 | duvelisib 0.029 | gandotinib -0.09 | tozasertib -0.046 | doramapimod 0.021 | bafetinib -0.047 | [2] -0.079 | nilotinib 0.027 | [3] 0.004 | dasatinib 0.015 | [4] -0.038 | [5] 0.03 | quisinostat 0.013 | tipifarnib 0.04 | [6] 0.02 | [7] 0.003 | [8] 0.054

DNAAF2 (UniProt Q9NVR5)
inactive: lapatinib -0.007 | pictilisib 0 | crizotinib 0.036 | [1] 0.011 | duvelisib 0.03 | gandotinib 0.016 | tozasertib 0.053 | doramapimod 0.004 | bafetinib 0.017 | [2] 0 | nilotinib -0.022 | [3] 0.05 | dasatinib 0.005 | [4] 0.034 | [5] -0.017 | quisinostat -0.011 | tipifarnib -0.002 | [6] -0.011 | [7] 0.008 | [8] -0.012
